Values quoted from earlier work as cited in US20260374742A1, “METHODS OF PREPARING CARBAMATE DERIVATIVES” (NodThera Limited, priority 2022, published 2026).
At least one compound was matched to its structure with a doubt left.

Test system: NLRP3 inflammasome
Conditions: literature report

## C[C@@H](O)CC(=O)O [β-hydroxybutyrate]
  inhibition of NLRP3 activation (in words): suppress NLRP3 activation
